Data on 37 molecules can be found in the supplement of paper PMC9135407.

In the assay the test system is primary human hepatic stellate cells (donor 1). The assay is described as follows: percent Bodipy-positive cells; higher = more lipid droplet accumulation. Particulars: 48 h. The method, then: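 Primary lipid accumulation screen in primary human hepatic stellate cell myofibroblasts (donor 1, passage 8) in 384-well plates. 100 nL of library compound was pin-transferred into 30 µL medium in duplicate, and cells were treated for 48 h. The 'Scaled' score combines distance from plate baseline, toxicity and reproducibility penalties, and is normalised to nortriptyline (positive) and DMSO (negative) controls on each plate. A hit is defined as scaled >0.85 or among the top 3 wells per plate.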

The mark [1] stands for this setting: library stock concentration: 3.33 mM.
Where [2] appears, read: library stock concentration: 10 mM.
[3] abbreviates: library stock concentration: 1 mM.
[4] abbreviates: library stock concentration: 6.7 mM.

“And” between values parts separate entries of the source, which are not always exact repeats. Equal entries are not always repeated. Structures can show the parent of a compound that is named as a salt. ± gives the standard deviation of the averaged measurements. The list shows a part of the results. Part of the spread comes from offsets between plates or batches.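 Primary human stellate myofibroblasts activated in culture; inactivation shown by regained lipid droplets. Readout: fraction of Hoechst-counted cells exceeding a per-plate Bodipy threshold, duplicate wells, each plate with DMSO negative and nortriptyline positive controls. Hits: control-normalized score beyond the plate's top-tenth-percentile nortriptyline wells, or among its three best wells. Final well concentrations unstated.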

Turning to `Cc1cc(=O)oc2c(C=O)c(O)ccc12`, the “percent Bodipy-positive cells” value by setting is: under setting [1], 28.2 ± 3.2%; under setting [2], 13.9 ± 0.85%. On to `NC(=O)c1cc[n+](CC2=C(C(=O)[O-])N3C(=O)[C@@H](NC(=O)[C@@H](c4ccccc4)S(=O)(=O)O)[C@H]3SC2)cc1` [Cefsulodin sodium salt], for which the “percent Bodipy-positive cells” value came out at 8.6 ± 0.66%. For the molecule `CC(C)=CC[C@@H](O)C1=CC(=O)c2c(O)ccc(O)c2C1=O` [Shikonin], the “percent Bodipy-positive cells” value is 76.5 ± 9.9% (library stock concentration: 6.9 mM) and 4.79 ± 1.5% (library stock concentration: 17.3 mM).

On to `CCCCNC(=O)NS(=O)(=O)c1ccc(CO)cc1` [4-hydroxy Tolbutamide], for which the “percent Bodipy-positive cells” value under setting [3] worked out at 12.1 ± 1.6%. Turning to `CC(O)C(O)[C@H]1CNc2nc(N)[nH]c(=O)c2N1` (stereo partly drawn) [(6R)-5,6,7,8-Tetrahydro-L-biopterin hydrochloride], the “percent Bodipy-positive cells” value under setting [2] turned out to be 28 ± 4.8%. Regarding `NC(=O)C1=CN(C2OC(COP(=O)(O)OP(=O)(O)OC[C@H]3O[C@@H](n4cnc5c(N)ncnc54)C(OP(=O)(O)O)[C@H]3O)C(O)C2O)C=CC1` (stereo not given in full) [NADPH tetrasodium], under setting [2], the “percent Bodipy-positive cells” value came out at 35.3 ± 16%. For the molecule `CCCCCC#CCC#CCC#CCC#CCCCC(=O)O` [5,8,11,14-Eicosatetraynoic acid], under setting [3], the “percent Bodipy-positive cells” value turned out to be 10.5 ± 7.5%. As for `NC[C@@H]1CC[C@@H](N)[C@@H](O[C@H]2[C@H](O)[C@@H](O[C@H]3O[C@H](CO)[C@@H](O)[C@H](N)[C@H]3O)[C@H](N)C[C@@H]2N)O1` [Dibekacin], the “percent Bodipy-positive cells” value under setting [2] was determined as 36.5 ± 1.6%. For the molecule `C[C@]12CC[C@H](O)CC1=CC[C@@H]1[C@@H]2CC[C@]2(C)C(n3cnc4ccccc43)=CC[C@@H]12` [Galeterone], the “percent Bodipy-positive cells” value under setting [1] worked out at 20.4 ± 3%. As for `CC1=C(/C=C/C(C)=C/C=C/C(C)=C/C(=O)O)C(C)(C)CCC1` [Tretinoin], the “percent Bodipy-positive cells” value amounted to 7.84 ± 2.7% under setting [1] and 19 ± 7.3% under setting [2]. As for `CC1=C(/C=C/C(C)=C/C=C/C(C)=C/C(=O)O)C(C)(C)CCC1` [Tretinon], the “percent Bodipy-positive cells” value is 15.6 ± 0.65% under setting [4] and 28.7 ± 10% under setting [2]. `CC1=C(/C=C/C(C)=C/C=C/C(C)=C/C(=O)O)C(C)(C)CCC1` [trans-Retinoic acid]: under setting [2], the “percent Bodipy-positive cells” value was found to be 41.5 ± 15%. In the case of `CC1=C(/C=C/C(C)=C/C=C/C(C)=C/C(=O)O)C(C)(C)CCC1` [All trans retinoic acid], the “percent Bodipy-positive cells” value under setting [3] was 16.3 ± 3.5%. For the molecule `CC1=C(/C=C/C(C)=C/C=C/C(C)=C/C(=O)O)C(C)(C)CCC1` [Retinoic acid], the “percent Bodipy-positive cells” value was 25.5 ± 2.5%. In addition, under setting [4], the “percent Bodipy-positive cells” value is 7.25 ± 1.2%. For the same molecule, under setting [2], the “percent Bodipy-positive cells” value was 18.2% and 5.85%. For the molecule `O=C(Nc1nc2cccc(-c3ccc(CN4CCS(=O)(=O)CC4)cc3)n2n1)C1CC1` [Filgotinib (GLPG0634)], the “percent Bodipy-positive cells” value by setting is: under setting [1], 19.2 ± 5.8%; under setting [2], 68.4 ± 4.7%. As for `O=C(Nc1nc2cccc(-c3ccc(CN4CCS(=O)(=O)CC4)cc3)n2n1)C1CC1` [Filgotinib], the “percent Bodipy-positive cells” value came to 8.13 ± 1.9% (library stock concentration: 80 uM), 6.79 ± 4% (library stock concentration: 400 uM), 5.19 ± 1.6% (library stock concentration: 2 mM) and 28.5 ± 3% under setting [2]. Turning to `COc1ccc2ccc(=O)oc2c1CC=C(C)C` [Osthole], the “percent Bodipy-positive cells” value under setting [1] came out at 11 ± 7.5% and the “percent Bodipy-positive cells” value under setting [2] turned out to be 14.6 ± 2.1%. In the case of `N=C(N)NS(=O)(=O)c1ccc(N)cc1` [Sulfaguanidine], the “percent Bodipy-positive cells” value came out at 29.8 ± 3.9%. Further, under setting [1], the “percent Bodipy-positive cells” value was 16.5 ± 2.3%. Besides, the “percent Bodipy-positive cells” value (library stock concentration: 9.3 mM) amounted to 15.9 ± 4%. Under setting [2], the “percent Bodipy-positive cells” value is 35.5% and 36.3%. As to `CC(=O)Oc1ccccc1C(=O)O` [Aspirin], the “percent Bodipy-positive cells” value was 7.8 ± 2% under setting [1]; 13% and 10.4% under setting [2]. Take `CC(=O)Oc1ccccc1C(=O)O` [Acetylsalicylic acid]: the “percent Bodipy-positive cells” value under setting [2] was 27.4 ± 13%. In the case of `CCCCCCOC(=O)[C@]1(O)C[C@@H]2O[C@@]1(C)n1c3ccccc3c3c4c(c5c6ccccc6n2c5c31)C(=O)NC4`, the “percent Bodipy-positive cells” value is 17.87 ± 0.16% (library stock concentration: 900 uM) and 9.8 ± 1.7% under setting [1]. On to `O=C(O)[C@H]1NCCC[C@H]1C(=O)O`, for which the “percent Bodipy-positive cells” value under setting [2] stood at 11.4 ± 2.3%. In the case of `CCCCCCCC/C=C\CCCCCCCC(=O)NCC(=O)O` [N-Oleoyl Glycine], the “percent Bodipy-positive cells” value under setting [3] was determined as 14 ± 3.3%. With `CC1=C(/C=C/C(C)=C/C=C/C(C)=C/C=C/C=C(C)/C=C/C=C(C)/C=C/C2=C(C)C(=O)[C@@H](O)CC2(C)C)C(C)(C)C[C@H](O)C1=O` [Astaxanthin], the “percent Bodipy-positive cells” value under setting [2] was found to be 46 ± 9%. Still for that read-out and setting: under `CNS(=O)(=O)CCc1ccc2[nH]cc(C3CCN(C)CC3)c2c1` [Naratriptan hydrochloride] stands 33.1 ± 3.3%.

Consider `CNS(=O)(=O)CCc1ccc2[nH]cc(C3CCN(C)CC3)c2c1` [Naratriptan], for which the “percent Bodipy-positive cells” value is, setting by setting: under setting [1], 7.43 ± 1.6%; under setting [2], 15.4 ± 0.44%. As to `CCCCNC(=O)[C@@H]1Cc2ccccc2N1C(=O)[C@@H](N)CC` [Butabindide oxalate], the “percent Bodipy-positive cells” value under setting [2] is 6.05 ± 0.63%. In the case of `C[C@H](O)[C@H](O)[C@@H](O)[C@@H](O)C=O` [L-(+)-Rhamnose Monohydrate], the “percent Bodipy-positive cells” value under setting [1] amounted to 9.569 ± 0.014% and the “percent Bodipy-positive cells” value under setting [2] came out at 24.3 ± 15%. For the molecule `Cc1ncc(CO)c(CO)c1O` [Pyridoxine], the “percent Bodipy-positive cells” value (library stock concentration: 11.8 mM) was 16.2 ± 0.56%. Take `Cc1ncc(CO)c(CO)c1O` [Pyridoxine HCl]: the “percent Bodipy-positive cells” value stood at 7.63 ± 1.2% under setting [1] and 9.52 ± 3.9% under setting [2]. Turning to `Cc1ncc(CO)c(CO)c1O` [Pyridoxine hydrochloride], the “percent Bodipy-positive cells” value is 31.6 ± 2.5%. As for `O=C(O)c1ccc(-c2c[nH]c3ncc(-c4ccccc4)cc23)cc1C1CCCC1`, the “percent Bodipy-positive cells” value by setting is: under setting [1], 24.5 ± 3.7%; under setting [2], 29.3% and 8.5%. For the molecule `CN1CCc2cc(Cl)c(O)cc2[C@@H](c2ccccc2)C1`, for the setting “library stock concentration: 9.9 mM”, the “percent Bodipy-positive cells” value stood at 20.8 ± 7.6%. Regarding `Nc1ccc(N2C(=O)c3ccccc3C2=O)c(Cl)c1` [N-(4-Amino-2-chlorophenyl)phthalimide], the “percent Bodipy-positive cells” value under setting [2] came to 52.3 ± 8.9%.

Regarding `CC1(C)[C@H](C(=O)O)N2C(=O)C[C@H]2S1(=O)=O` [Sulbactam], the “percent Bodipy-positive cells” value under setting [1] came to 7.25 ± 1.9%, the “percent Bodipy-positive cells” value (library stock concentration: 8.6 mM) turned out to be 10.1 ± 1.1% and the “percent Bodipy-positive cells” value under setting [2] was found to be 25.8 ± 24%.

Consider `CC1(C)[C@H](C(=O)O)N2C(=O)C[C@H]2S1(=O)=O` [Sulbactam sodium], for which the “percent Bodipy-positive cells” value under setting [1] stood at 8.34 ± 2.5% and the “percent Bodipy-positive cells” value under setting [2] was 18.9 ± 5.4%. On to `COc1cc2c3cc1Oc1cc(ccc1O)C[C@@H]1c4c(cc(OC)c(O)c4Oc4ccc(cc4)C[C@@H]3N(C)CC2)CC[N+]1(C)C` [Tubocurarine chloride], for which the “percent Bodipy-positive cells” value (library stock concentration: 3.1 mM) worked out at 9.41 ± 1.8%.
